Test: general procedure: solution-phase peptide synthesis; HATU/DIEA
Settings: coupling step, TFA salt
“(S)-methyl 2-((2R,3R)-3-((S)-1-((3R,4S,5S)-4-((S)-3-azido-2-((S)-2-(dimethylamino)-3-methylbutanamido)-N-methylpropanamido)-3-methoxy-5-methylheptanoyl)pyrrolidin-2-yl)-3-methoxy-2-methylpropanamido)-3-phenylpropanoate” gave a step yield of 7%. “(S)-methyl 2-((2R,3R)-3-((S)-1-((3R,4S,5S)-4-((S)-4-azido-2-((S)-2-(dimethylamino)-3-methylbutanamido)-N-methylbutanamido)-3-methoxy-5-methylheptanoyl)pyrrolidin-2-yl)-3-methoxy-2-methylpropanamido)-3-phenylpropanoate” gave a step yield of 7%.

Same assay, conditions: coupling step, TFA salt or formic acid salt
Work on Dov-Ser(Bzl)-Dil-Dap-Phe-OtBu yielded a step yield of 98%. Substance “methyl ((2R,3R)-3-((S)-1-((3R,4S,5S)-4-((S)-2-((S)-2-(dimethylamino)-3-methylbutanamido)-N-methylpent-4-ynamido)-3-methoxy-5-methylheptanoyl)pyrrolidin-2-yl)-3-methoxy-2-methylpropanoyl)-L-phenylalaninate” has a step yield of 3%. For Dov-Thr(Bzl)-Dil-Dap-Phe-OtBu, the step yield was 78%. Substance “N-Boc-N-hydroxyVal-Val-Dil-Dap-2-(2-pyridyl)ethylamine” has a step yield of 43%. Work on “methyl ((2R,3R)-3-((S)-1-((3R,4S,5S)-4-((2S,4S)-4-azido-1-(dimethyl-L-valyl)-N-methylpyrrolidine-2-carboxamido)-3-methoxy-5-methylheptanoyl)pyrrolidin-2-yl)-3-methoxy-2-methylpropanoyl)-L-phenylalaninate” yielded a step yield of 18%. Work on “N,N-dimethylThr(Bzl)-Val-Dil-Dap-Phe-OMe” yielded a step yield of 62%. For “Dov-Thr(Bzl)-Dil-Dap-(1R,2S)-(−)-Norephedrine”, the step yield was 37%. For “N,N-dimethylSer(Bzl)-Val-Dil-Dap-Phe-OMe”, the step yield was 49%. With “methyl ((2R,3R)-3-((S)-1-((3R,4S,5S)-4-((2S,3S)-3-azido-2-((S)-2-(dimethylamino)-3-methylbutanamido)-N-methylbutanamido)-3-methoxy-5-methylheptanoyl)pyrrolidin-2-yl)-3-methoxy-2-methylpropanoyl)-L-isoleucinate” the step yield was 60%. In the case of Fmoc-MeVal-Abu(3-N3)-Dil-Dap-Phe-OMe, the step yield is reported as 77%. In the case of Dov-Asp(OBzl)-Dil-Dap-Phe-OMe, the step yield is reported as 77%. Dov-Lys(Fmoc)-Dil-Dap-Phe-OMe gave a step yield of 70%. Work on “(2S,3S)-3-azido-N-((3R,4S,5S)-1-((S)-2-((1R,2R)-3-((4-chlorophenethyl)amino)-1-methoxy-2-methyl-3-oxopropyl)pyrrolidin-1-yl)-3-methoxy-5-methyl-1-oxoheptan-4-yl)-2-((S)-2-(dimethylamino)-3-methylbutanamido)-N-methylbutanamide” yielded a step yield of 85%. For “(2S,3S)-3-azido-2-((S)-2-(dimethylamino)-3-methylbutanamido)-N-((3R,4S,5S)-3-methoxy-1-((S)-2-((1R,2R)-1-methoxy-2-methyl-3-oxo-3-(phenethylamino)propyl)pyrrolidin-1-yl)-5-methyl-1-oxoheptan-4-yl)-N-methylbutanamide”, the step yield was 49%.

Same assay, conditions: coupling step, based on RSM, TFA salt or formic acid salt
Substance “(2S,3S)-3-azido-N-((3R,4S,5S)-1-((S)-2-((1R,2R)-3-((2-chlorophenethyl)amino)-1-methoxy-2-methyl-3-oxopropyl)pyrrolidin-1-yl)-3-methoxy-5-methyl-1-oxoheptan-4-yl)-2-((S)-2-(dimethylamino)-3-methylbutanamido)-N-methylbutanamide” has a step yield of 32% based on RSM.

Same assay, conditions: coupling step, formic acid salt
For Fmoc-MeVal-Abu(3-N3)-Dil-Dap-Phe-NH2, the step yield was 75%. Work on “(S)-methyl 2-((2R,3R)-3-((S)-1-((3R,4S,5S)-4-((2S,3S)-3-azido-2-((S)-2-(dimethylamino)-3-methylbutanamido)-N-methylbutanamido)-3-methoxy-5-methylheptanoyl)pyrrolidin-2-yl)-3-methoxy-2-methylpropanamido)-3-phenylpropanoate” yielded a step yield of 49%. Fmoc-MeVal-Abu(3-N3)-Dil-Dap-Phe-OtBu gave a step yield of 97%.

Same assay, conditions: late stage modification step, TFA salt
Substance “(2S,3S)—N-((3R,4S,5S)-1-((S)-2-((1R,2R)-3-(((S)-1-amino-1-oxo-3-phenylpropan-2-yl)amino)-1-methoxy-2-methyl-3-oxopropyl)pyrrolidin-1-yl)-3-methoxy-5-methyl-1-oxoheptan-4-yl)-3-azido-N-methyl-2-((S)-3-methyl-2-(methylamino)butanamido)butanamide” has a step yield of 79%. With “(S)—N—((S)-3-amino-1-(((3R,4S,5S)-3-methoxy-1-((S)-2-((1R,2R)-1-methoxy-2-methyl-3-oxo-3-((2-(pyridin-2-yl)ethyl)amino)propyl)pyrrolidin-1-yl)-5-methyl-1-oxoheptan-4-yl)(methyl)amino)-1-oxopropan-2-yl)-2-(dimethylamino)-3-methylbutanamide” the step yield was 75%. Work on “(S)-methyl 2-((2R,3R)-3-((S)-1-((3R,4S,5S)-4-((S)-2-((S)-2-(dimethylamino)-3-methylbutanamido)-3-hydroxy-N-methylpropanamido)-3-methoxy-5-methylheptanoyl)pyrrolidin-2-yl)-3-methoxy-2-methylpropanamido)-3-phenylpropanoate” yielded a step yield of 47%.

Same assay, conditions: late stage modification step, TFA salt or formic acid salt
For “(S)-2-((2R,3R)-3-((S)-1-((3R,4S,5S)-4-((2S,3S)-3-amino-2-((S)-2-(dimethylamino)-3-methylbutanamido)-N-methylbutanamido)-3-methoxy-5-methylheptanoyl)pyrrolidin-2-yl)-3-methoxy-2-methylpropanamido)-3-phenylpropanoic acid”, the step yield was 21%. For Dov-Abu(3-N3)-Dil-Dap-Phe-NH2, the step yield was 33%. “((2R,3R)-3-((S)-1-((3R,4S,5S)-4-((S)-2-((S)-2-(dimethylamino)-3-hydroxypropanamido)-N,3-dimethylbutanamido)-3-methoxy-5-methylheptanoyl)pyrrolidin-2-yl)-3-methoxy-2-methylpropanoyl)-L-phenylalanine” showed a step yield of 31%. Substance “(S)-4-amino-N-((3R,4S,5S)-1-((S)-2-((1R,2R)-3-((4-chlorophenethyl)amino)-1-methoxy-2-methyl-3-oxopropyl)pyrrolidin-1-yl)-3-methoxy-5-methyl-1-oxoheptan-4-yl)-2-((S)-2-(dimethylamino)-3-methylbutanamido)-N-methylbutanamide” has a step yield of 85%. For “(S)-2-((2R,3R)-3-((S)-1-((3R,4S,5S)-4-((R)-2-((S)-2-(dimethylamino)-3-methylbutanamido)-3-mercapto-N-methylpropanamido)-3-methoxy-5-methylheptanoyl)pyrrolidin-2-yl)-3-methoxy-2-methylpropanamido)-3-phenylpropanoic acid”, the step yield was 25%. Substance “(S)-2-((2R,3R)-3-((S)-1-((3R,4S,5S)-4-((2S,3R)-2-((S)-2-(dimethylamino)-3-methylbutanamido)-3-hydroxy-N-methylbutanamido)-3-methoxy-5-methylheptanoyl)pyrrolidin-2-yl)-3-methoxy-2-methylpropanamido)-3-phenylpropanoic acid” has a step yield of 47%. In the case of “(S)-2-((2R,3R)-3-((S)-1-((3R,4S,5S)-4-((S)-2-((S)-2-(dimethylamino)-3-methylbutanamido)-3-hydroxy-N-methylpropanamido)-3-methoxy-5-methylheptanoyl)pyrrolidin-2-yl)-3-methoxy-2-methylpropanamido)-3-phenylpropanoic acid”, the step yield is reported as 28%. In the case of “(S)-methyl 2-((2R,3R)-3-((S)-1-((3R,4S,5S)-4-((2S,3S)-3-amino-2-((S)-2-(dimethylamino)-3-methylbutanamido)-N-methylbutanamido)-3-methoxy-5-methylheptanoyl)pyrrolidin-2-yl)-3-methoxy-2-methylpropanamido)-3-phenylpropanoate”, the step yield is reported as 62%. “(2S,3S)-3-amino-N-((3R,4S,5S)-1-((S)-2-((1R,2R)-3-(((S)-1-(tert-butylamino)-1-oxo-3-phenylpropan-2-yl)amino)-1-methoxy-2-methyl-3-oxopropyl)pyrrolidin-1-yl)-3-methoxy-5-methyl-1-oxoheptan-4-yl)-2-((S)-2-(dimethylamino)-3-methylbutanamido)-N-methylbutanamide” gave a step yield of 18%.

Same assay, conditions: late stage modification step, formic acid salt
For “tert-butyl ((2R,3R)-3-((S)-1-((3R,4S,5S)-4-((2S,3S)-3-amino-2-((S)-2-(dimethylamino)-3-methylbutanamido)-N-methylbutanamido)-3-methoxy-5-methylheptanoyl)pyrrolidin-2-yl)-3-methoxy-2-methylpropanoyl)-L-phenylalaninate”, the step yield was 70%. Work on “(2S,3S)-3-amino-N-((3R,4S,5S)-1-((S)-2-((1R,2R)-3-((4-chlorophenethyl)amino)-1-methoxy-2-methyl-3-oxopropyl)pyrrolidin-1-yl)-3-methoxy-5-methyl-1-oxoheptan-4-yl)-2-((S)-2-(dimethylamino)-3-methylbutanamido)-N-methylbutanamide” yielded a step yield of 9%. For “(2S,3S)-3-amino-2-((S)-2-(dimethylamino)-3-methylbutanamido)-N-((3R,4S,5S)-3-methoxy-1-((S)-2-((1R,2R)-1-methoxy-2-methyl-3-oxo-3-(((S)-2-phenyl-1-(thiazol-2-yl)ethyl)amino)propyl)pyrrolidin-1-yl)-5-methyl-1-oxoheptan-4-yl)-N-methylbutanamide”, the step yield was 47%. For “(2S,3S)-3-amino-2-((S)-2-(dimethylamino)-3-methylbutanamido)-N-((3R,4S,5S)-3-methoxy-1-((S)-2-((1R,2R)-1-methoxy-2-methyl-3-oxo-3-(phenethylamino)propyl)pyrrolidin-1-yl)-5-methyl-1-oxoheptan-4-yl)-N-methylbutanamide”, the step yield was 41%. “(S)-methyl 2-((2R,3R)-3-((S)-1-((3R,4S,5S)-4-((S)-3-amino-2-((S)-2-(dimethylamino)-3-methylbutanamido)-N-methylpropanamido)-3-methoxy-5-methylheptanoyl)pyrrolidin-2-yl)-3-methoxy-2-methylpropanamido)-3-phenylpropanoate” gave a step yield of 50%.

— patent publication US12612429 (dated 2026)
